Source: the supplement of paper PMC7024190
This is one part of the list. This data set is noisy: repeats of one test often differ as much as different tests do.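 A first-round screen of about ten thousand compounds sought those raising reporter output, using human embryonic kidney cells briefly transfected with a plasmid carrying a Renilla luciferase gene driven by the HSV-TK promoter.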

System: HEK 293FT
Test: log relative Renilla luciferase luminescence (reporter expression vs reference, reference not stated) (log (base not stated)); higher = higher recombinant reporter expression
Conditions: 10 µM; time after transfection 48 h
Method: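 HEK 293FT cells transiently transfected with pRL-TK (Renilla luciferase) were treated with compounds at 10 uM and luminescence was read about 42 h later. Values are log relative Renilla luminescence (log base and reference not stated). Single-pass screen; 2080 natural products library.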

Row | SMILES | log
1 | CC1(C)CC[C@]2(C(=O)O)CC[C@]3(C)C(=CC[C@@H]4[C@@]5(C)CC[C@@H](O)[C@](C)(CO)[C@@H]5CC[C@]43C)[C@@H]2C1 [Scutellaric acid] | -0.0378
2 | COc1ccc(-c2cc(=O)c3c(O)c(C)c(OC)c(C)c3o2)cc1 [Eucalyptin] | 0.0202
3 | COc1cc(O[C@@H]2O[C@H](CO)[C@@H](O)[C@H](O)[C@H]2O)cc(OC)c1OC [Koaburaside monomethyl ether] | -0.401
4 | C=C1C(=O)O[C@H]2C[C@@H](C)[C@@H]3CC[C@H](O)[C@@]3(C)C[C@H]12 [2-Desoxy-4-epi-pulchellin] | -0.366
5 | C[C@@H]1CC[C@]2(C(=O)O)CC[C@]3(C)C(=CC[C@@H]4[C@@]5(C)C[C@@H](O)[C@@H](O)C(C)(C)[C@@H]5CC[C@]43C)[C@@H]2[C@]1(C)O [Euscaphic acid] | -0.341
6 | C=C1CC[C@H]2[C@@](C)(CCC[C@@]2(C)C(=O)O[C@@H]2O[C@H](CO)[C@@H](O)[C@H](O)[C@H]2O)[C@@H]1CCC1=CCOC1=O | -0.0462
7 | COc1ccc2ccc(=O)oc2c1C[C@H](O)C(C)(C)O [Meranzin hydrate] | -0.0849
8 | C=C(C)[C@H](/C=C/[C@@H](C)[C@H]1CC[C@H]2[C@@H]3CC=C4C[C@@H](O)CC[C@]4(C)[C@H]3CC[C@]12C)CC [22-Dehydroclerosterol] | -0.0961
9 | COc1cccc2c1[nH]c1c(C3CCCc4c5[nH]c6c(OC)cccc6c5c(OC)c[n+]43)ncc(OC)c12 (centres undefined) [Picrasidine S] | -0.168
10 | Cc1coc2c1C(=O)C(=O)c1c-2ccc2c(C)cccc12 [Tanshinone I] | -0.571
11 | C[C@@H]1CC[C@@]2(C)C(C(=O)O)=CCC[C@@H]2[C@@]1(C)CCC1=CCNC1=O [Echinophyllin C] | -0.191
12 | CCCCCCCCCCCCCCCCCCCCCCCc1cc(O)cc(O)c1 [5-Tricosyl-1,3-benzenediol] | 0.116
13 | CC(C)(O)[C@H]1CC[C@@](C)([C@H]2CC[C@]3(C)[C@@H]2[C@H](O)C[C@@H]2[C@@]4(C)CCC(=O)C(C)(C)[C@@H]4CC[C@]23C)O1 [20S,24R-Epoxy-dammar-12,25-diol-3-one] | -0.0473
14 | COc1c2occc2cc2ccc(=O)oc12 [Xanthotoxin] | 0.0164
15 | CC(=O)OC1CC(C)(OC(C)=O)CC2C1(OC(C)=O)CC1(C)C(OC(C)=O)C3C(OC(=O)c4ccccc4)C(C)CC3(O)C(OC(C)=O)C21C (centres undefined) [5,8,9,10,14-Pentaacetoxy-3-benzoyloxy-15-hydroxypepluane] | -0.166
16 | C=C(C)C(O)C(OCC)c1c(OC)ccc2ccc(=O)oc12 (centres undefined) [Murraxocin] | -0.177
17 | CC1=CC(=O)CC(C)(C)[C@@]1(O)/C=C/[C@@H](C)O[C@@H]1O[C@H](CO)[C@@H](O)[C@H](O)[C@H]1O [Roseoside] | -0.382
18 | COC(=O)C1=COC(OC2OC(CO)C(O)C(O)C2O)C2C(C)(O)CC(O)C12O (stereo not drawn) [6beta-Hydroxyipolamiide] | 0.286
19 | CC(=O)O[C@H]1CC[C@]2(C)[C@H]3C=C[C@]45OC(=O)[C@@]6(CC[C@@H](C)[C@H](C)[C@H]64)CC[C@@]5(C)[C@]3(C)CC[C@H]2C1(C)C [3-Acetoxy-11-ursen-28,13-olide] | -0.0844
20 | Oc1ccc(C2Oc3cc(O)c4c5c3C2c2cc(O)cc(O)c2C(c2ccc(O)cc2)C5C(c2cc(O)cc(O)c2)C4c2ccc(O)cc2)cc1 (centres undefined) [Viniferol D] | 0.0396

In the list so far, 2 have a furan ring, fused or not.
Row | SMILES | log
10 | Cc1coc2c1C(=O)C(=O)c1c-2ccc2c(C)cccc12 [Tanshinone I] | -0.571
14 | COc1c2occc2cc2ccc(=O)oc12 [Xanthotoxin] | 0.0164

(list continues)

Row | SMILES | log
21 | O=C(O)c1ccc(O)cc1 [4-Hydroxybenzoic acid] | 0.0425
22 | COC(=O)[C@H]1[C@H]2C[C@H]3c4[nH]c5ccccc5c4CCN3C[C@H]2CC[C@@H]1O [alpha-Yohimbine] | 0.143
23 | COc1cc(O)c(C(=O)/C=C/c2ccccc2)c(O)c1OC [Pashanone] | -0.0362
24 | COc1ccc(CCCO)cc1O [3-Hydroxy-4-methoxy-benzenepropanol] | -0.43
25 | O=C1c2c(O)cc(O)cc2OC(c2ccc(O)c(O)c2)C1O (centres undefined) [Taxifolin] | 0.062
26 | CC(=O)O[C@H]1C(=O)c2c(O)cc(O)cc2O[C@@H]1c1ccccc1 [3-O-Acetylpinobanksin] | 0.0094
27 | COc1ccc(C[C@H]2CO[C@H](c3ccc(OC)c(OC)c3)[C@H]2COC(C)=O)cc1OC [Lariciresinol-4,4'-dimethyl ether-9-acetate] | -0.361
28 | CC1=C2C[C@@H](C(C)(C)O)CC[C@@]2(C)CCC1 [epi-Eudesmol] | 0.194
29 | O=C1CCC(O)(CCO)CC1 [Cleroindicin B] | -0.134
30 | C=C1C(=O)O[C@H]2[C@H]1[C@H](OC(C)=O)C[C@@]1(C)O[C@@H]1CC[C@@]1(C)O[C@H]21 [Epitulipinolide diepoxide] | -0.422
31 | C=C1[C@H]2CC[C@]3([C@@H](C2)[C@]24CCC[C@]5(C)[C@H]2C[C@H]3O[C@H]4N2CCO[C@@H]25)[C@H]1OC(C)=O [Spiramine A] | 0.035
32 | COC(=O)C1=CO[C@@H](C)[C@H]2Cn3ccc4c5ccccc5nc-4c3C[C@H]12 [Serpentine] | 0.154
33 | COC(=O)[C@H]1[C@H]2C[C@@H]3c4[nH]c5ccccc5c4CCN3C[C@H]2CC[C@@H]1O [Isorauhimbine] | -0.00447
34 | CC(=O)CCc1ccc(O)c(O)c1 [4-(3,4-Dihydroxyphenyl)-2-butanone] | 0.00469
35 | COc1ccc(-c2cc(=O)c3c(O)cc(O)c(-c4cc(-c5cc(=O)c6c(O)cc(OC)cc6o5)ccc4O)c3o2)cc1 [Putraflavone] | -0.401
36 | Oc1ccc([C@H]2Oc3cc(O[C@@H]4OC[C@@H](O)[C@H](O)[C@H]4O)cc(O)c3C[C@@H]2O)cc1O [Catechin 7-xyloside] | -0.43
37 | C[C@]1(CO)CCC[C@]2(C)[C@@H]1CC[C@]13C=C(C(=O)O)[C@H](CC[C@H]12)C3 [Pseudolaric acid D] | -0.308
38 | COc1cc2cc(CC=C(C)C)c(=O)oc2cc1O [7-Hydroxy-6-methoxy-3-prenylcoumarin] | 0.0016
39 | CC1(C)[C@H](O)CC[C@@]2(C)C3=C(CC[C@H]12)[C@H]1OC[C@H](O)[C@@]1(C)CC3 (single isomer, unassigned; ent-14) [ent-14,16-Epoxy-8-pimarene-3,15-diol] | -0.594
